PubChem BioAssay AID493014 (National Center for Advancing Translational Sciences (NCATS), 2011)
Among all 340,000 compounds or so, about 170 (0.05%) were called active. The inconclusive results got no clear call from the source; some entries with a clear call stand among them for comparison. Calls follow the shape of the dose curve; as a rule, active = well fitted inhibition curve with a large enough effect in the signal ratio, with a control signal flat (not every such curve was filed as active); inconclusive = small, poorly fitted or top-dose-only effect, or effect the other way, or a change in a side signal; inactive = flat fitted curve, though single readings scatter; the % refers to the signal ratio. Where the call is inconclusive, the potency comes from a doubtful curve fit.
Potency is read from the fitted curve at half-maximal effect.

Assay: qHTS Assay to Find Inhibitors of Chronic Active B-Cell Receptor Signaling;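 as to activity change, negative = inhibition: plate controls were basal doxycycline-induced cells for no effect and cells given 10 µM MG132 for full effect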
Conditions: ABC-DLBCL IkBa-CBG/CBR reporter, luminescence ratio (green luciferase fused to IkBa over red control in TMD8 lymphoma cells), 4 h; activity change, negative = inhibition: at 46.1 µM (top of the series) unless noted
Outline: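 Doxycycline induced both beetle luciferases in TMD8 lymphoma cells; IKK-driven degradation limits the IkappaBalpha-fused green signal, while red luminescence normalises for cell number and nonspecific effects. Compounds tested up to 46 uM, 4 hrs.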
With `COc1cccc(NC(=O)C(C)Oc2ccccc2)c1` (centres undefined) the activity change, negative = inhibition was inconclusive: 4.12%.
In the case of `N#Cc1ccc(C(=O)NC2CCCc3ccccc32)cc1` (centres undefined), the “activity change, negative = inhibition” value is reported as inactive: -11.1%.
In the case of `CCn1nnnc1NCc1ccc(SC)cc1`, the “activity change, negative = inhibition” value is reported as inactive: 1.58%.
With `COc1ccc(NC(=O)c2c(C)nn(Cc3ccccc3)c2C)cc1S(=O)(=O)N(C)C` the “activity change, negative = inhibition” value was inactive: -0.91%.
In the case of `Cc1sc2ncnc(SCC(=O)N3CCOCC3)c2c1C`, the “activity change, negative = inhibition” value is reported as inactive: -0.393%.
For `COc1cc(NC(=O)c2onc(C)c2Cl)cc(OC)c1OC`, the activity change, negative = inhibition was inconclusive: 6.9%.
For `CC(C)Cn1c(N)c(S(=O)(=O)c2cccs2)c2nc3ccccc3nc21`, the activity change, negative = inhibition was inconclusive: 17.8%.
In the case of `Cc1nc2ccccc2n1CC(=O)NCCN1CCOCC1`, the “activity change, negative = inhibition” value is reported as inactive: -10.7%.
For `CN(c1ccc(Cl)cc1)S(=O)(=O)c1nnc(NC(=O)C(C)(C)C)s1`, the activity change, negative = inhibition was inconclusive: 0.649%.
For `Cc1ccc(/C=C2\SC(=S)N(NS(=O)(=O)c3ccc(C)cc3)C2=O)cc1`, the “activity change, negative = inhibition” value was inactive: -1.23%.
For `CC(C)c1ccccc1NC(=O)CN1C(=O)c2ccccc2C1=O`, the activity change, negative = inhibition was inconclusive: 9.02%.
In the case of `Cc1ccc(C2(C)NC(=O)N(CC(=O)Nc3nc(-c4ccccn4)cs3)C2=O)cc1` (centres undefined), the activity change, negative = inhibition is reported as inconclusive: 11.7%.
In the case of `O=C(COc1ccc2ccccc2c1)Nc1cccnc1Cl`, the activity change, negative = inhibition is reported as inconclusive: 10.6%.
With `COc1ccc(OC)c(C2=Nn3c(nnc3-c3ccco3)SC2)c1` the Potency was inconclusive: 12.6 µM [falling, single point].
For `COc1ccc(-c2nc3ccccc3c(=O)n2CCN2CCOCC2)cc1`, the activity change, negative = inhibition was inconclusive: 0.735%.
With `Fc1ccc(C2CC(c3ccccc3)n3ncnc3N2)cc1` (centres undefined) the “activity change, negative = inhibition” value was inactive: -14.1%.
In the case of `CCOC(=O)c1[nH]c2ccccc2c1NC(=O)c1ccc2c(c1)OCO2`, the activity change, negative = inhibition is reported as inconclusive: -0.408%.
With `O=[N+]([O-])c1cc(/C=N/O)ccc1Oc1cccc(Cl)c1` the activity change, negative = inhibition was inconclusive: -12%.
In the case of `COC(=O)C(C#N)c1nc2ccccc2nc1N1CCCC1` (centres undefined), the Potency is reported as inconclusive: 4.61 µM [rising, full curve, poor fit].
For `CCOC(=O)c1c(NC(=O)CSc2c[nH]c3ccccc23)sc2c1CCC2`, the activity change, negative = inhibition was inconclusive: 3.13%.
With `O=c1c2ccccc2oc2ncccc12` the “activity change, negative = inhibition” value was inactive: 2.43%.
For `CC(=O)c1cccc(NC(=O)/C=C/c2ccc([N+](=O)[O-])s2)c1`, the Potency was inconclusive: 0.562 µM [falling, full curve, poor fit].
In the case of `CCOc1ccccc1N(CC(=O)NCCSCc1ccco1)S(=O)(=O)c1ccccc1`, the “activity change, negative = inhibition” value is reported as inactive: 13.9%.
For `COc1ccc(CNC(=O)C2=CCN(S(=O)(=O)c3ccc(C)cc3)CC2)cc1`, the “activity change, negative = inhibition” value was inactive: -0.0458%.
In the case of `CCOc1ccc2oc(-c3ccccc3)c(C(=O)O)c2c1`, the Potency is reported as inconclusive: 29.1 µM [falling, single point].
With `CCOc1ccccc1NC(=O)c1nc[nH]c1C(=O)Nc1ccccc1OCC` the “activity change, negative = inhibition” value was inactive: -3.51%.
For `CN(Cc1ccco1)C(=O)c1ccc2c(c1)N(Cc1ccccc1F)C(=O)c1ccccc1S2`, the “activity change, negative = inhibition” value was inactive: -8.84%.
For `CCCc1nc2ccccc2c(C(=O)OCC(=O)Nc2c(C)n(C)n(-c3ccccc3)c2=O)c1CC`, the “activity change, negative = inhibition” value was inactive: -0.297%.
For `COCCn1c(SCc2nc3sc(C(=O)OC)c(C)c3c(=O)[nH]2)nc2ccccc21`, the “activity change, negative = inhibition” value was inactive: 2.61%.
With `Nc1ccc(NC(=O)c2ccccc2)c2c1C(=O)c1ccccc1C2=O` the “activity change, negative = inhibition” value was inactive: 13.4%.
With `O=C(Cn1c(=O)oc2cc(S(=O)(=O)N3CCCCC3)ccc21)N1CCc2ccccc21` the Potency was inconclusive: 0.259 µM [falling, full curve, poor fit].
For `CCc1c(C)nc(SCC(=O)Nc2nc(-c3ccc(OC)cc3)cs2)[nH]c1=O`, the “activity change, negative = inhibition” value was inactive: -1.02%.
With `Nc1c(C(=O)Nc2nc3ccccc3s2)sc2nc(-c3cccs3)ccc12` the activity change, negative = inhibition was inconclusive: 12.5%.
In the case of `CCCCCn1c(N)c(-c2nc3ccccc3s2)c2c([N+](=O)[O-])nn(CC)c(=O)c21`, the activity change, negative = inhibition is reported as inconclusive: 19.2%.
With `Cc1c(NC(=S)NC(=O)c2sc3ccccc3c2Cl)cccc1C(=O)O` the Potency was inconclusive: 0.501 µM [falling, full curve, poor fit].
For `CC(=O)Nc1nc2ccccc2n1Cc1ccccc1C`, the activity change, negative = inhibition was inconclusive: 6.49%.
With `Cc1nc2cc(C(F)(F)F)ccc2n1CCNc1nc(-c2ccc([N+](=O)[O-])c(Cl)c2)cs1` the Potency was inconclusive: 0.794 µM [rising, full curve, poor fit].
In the case of `COc1ccc(OCCNc2cc(Cl)ccc2[N+](=O)[O-])cc1`, the activity change, negative = inhibition is reported as inconclusive: 7.06%.
In the case of `CCCCC[C@H](O)/C=C/[C@H]1C=CC(=O)[C@@H]1C/C=C\CCCC(=O)O`, the Potency is reported as inconclusive: 4.61 µM [falling, partial curve].
In the case of `CCOc1ncccc1C(=O)OCC(=O)NCCc1ccc(S(N)(=O)=O)cc1`, the activity change, negative = inhibition is reported as inconclusive: 4.09%.
With `Cc1ccc2[nH]c(-c3cccc(N)c3)cc2c1` the activity change, negative = inhibition was inconclusive: 10%.
In the case of `Cc1nc2sc(C(c3ccco3)N3CCC(Cc4ccccc4)CC3)c(O)n2n1` (centres undefined), the activity change, negative = inhibition is reported as inconclusive: 4.15%.
For `Cc1ccc(S(=O)(=O)N2CCN(C(=O)CCCOc3cccc(C)c3)CC2)cc1`, the activity change, negative = inhibition was inconclusive: 3.42%.
For `COc1ccc(/C=C/C(=O)c2ccc([N+](=O)[O-])o2)cc1`, the “activity change, negative = inhibition” value was inactive: -24.5%.
In the case of `Cc1cc(C(=O)Nc2ccncc2)c2ccccc2n1`, the activity change, negative = inhibition is reported as inconclusive: -0.168%.
With `CCOC(=O)c1[nH]c2ccc(F)cc2c1NC(=O)CN1CCc2cc(OC)c(OC)cc2C1` the activity change, negative = inhibition was inconclusive: -2.02%.
With `CC(=O)N1CCc2c(sc3c2c(=O)n(-c2ccccc2)c(=O)n3CC(=O)Nc2ccccc2)C1` the activity change, negative = inhibition was inconclusive: -22.4%.
With `Cc1ccccc1NC(=O)CSc1nc2ccccc2o1` the Potency was inconclusive: 23.1 µM [falling, partial curve].
In the case of `CCc1c(C(=O)NC2CCCc3ccccc32)[nH]c(C)c1C(C)=O` (centres undefined), the “activity change, negative = inhibition” value is reported as inactive: -2.91%.
In the case of `Cc1ccccc1S(=O)(=O)c1c(C)cc(C)n(C(C)C)c1=O`, the activity change, negative = inhibition is reported as inconclusive: 8.82%.
For `CCCOc1ccc(NC(=O)C2CC(=O)N(C)C(=Nc3cccc(OC)c3)S2)cc1` (centres undefined), the activity change, negative = inhibition was inconclusive: 21.1%.
For `CN=C(Nc1ccc2c(c1)OCO2)SC1CC(=O)N(c2ccccc2)C1=O` (centres undefined), the Potency was inconclusive: 0.517 µM [falling, full curve, poor fit].
For `Cc1nnc(NC(=O)CC(CN(C)S(=O)(=O)c2ccccc2)c2ccccc2)s1` (centres undefined), the “activity change, negative = inhibition” value was inactive: 17.7%.
In the case of `CCCC(=O)Nc1ccc2c(c1)nc(CCN1CCN(c3ccccn3)CC1)n2C`, the activity change, negative = inhibition is reported as inconclusive: 0.275%.
In the case of `COc1ccc2c(c1)CC/C(=C/c1ccccn1)C2=O`, the Potency is reported as inconclusive: 17.8 µM [falling, partial curve, poor fit].
For `COc1ccc2c(c1)SC(C)CC2=O` (centres undefined), the Potency was inconclusive: 6.51 µM [falling, single point].
For `CCOC(=O)Cc1csc(/C(=N/O)C(N)=O)n1`, the activity change, negative = inhibition was inconclusive: 10.8%.
In the case of `CC(C)C(NS(=O)(=O)c1cccc2nsnc12)C(=O)N1CCn2c1nc1ccccc12` (centres undefined), the activity change, negative = inhibition is reported as inconclusive: -1.31%.
With `COC(=O)C1CCN(C(=O)COC(=O)Cc2c[nH]c3ccccc23)CC1` the activity change, negative = inhibition was inconclusive: -9.26%.
In the case of `C/C(=N\NC(=O)c1ccc(O)cc1O)c1cccnc1`, the Potency is reported as inconclusive: 10 µM [falling, partial curve].
For `O=C(Nc1ccc(S(=O)(=O)NC2CCCCC2)cc1)c1ccc(Br)o1`, the activity change, negative = inhibition was inconclusive: -1.33%.
For `Fc1ccccc1CN1CCCCCCC1`, the Potency was inconclusive: 20.6 µM [falling, single point].
In the case of `Cc1cccc(NC(=O)c2ccc3c(c2)OCCO3)c1`, the Potency is reported as inconclusive: 31.6 µM [rising, partial curve].
In the case of `O=C(NC1CCCCC1)/C(=N\O)c1ccccn1`, the activity change, negative = inhibition is reported as inconclusive: 1.36%.
With `O=C(CSc1nnc(Cn2nnc3ccccc32)o1)N(Cc1ccc(F)cc1)c1ccccc1` the activity change, negative = inhibition was inconclusive: 5.2%.
For `CC1CCN(c2nc(-c3ccccc3)c(C#N)c(=O)[nH]2)CC1`, the activity change, negative = inhibition was inconclusive: 0.625%.
For `O=C(Cc1ccccc1)N/N=C/C=C/c1cccc([N+](=O)[O-])c1`, the activity change, negative = inhibition was inconclusive: 3.08%.
In the case of `Cc1csc(NC(=O)NCC2CCCC(CNC(=O)Nc3nc(C)cs3)C2)n1` (centres undefined), the activity change, negative = inhibition is reported as inconclusive: 11%.
With `CCNc1nc(NCC)nc(-n2nc(C)cc2C)n1` the Potency was inconclusive: 11.2 µM [falling, partial curve].
With `COc1ccc(NC(=O)c2ccc(OC)cc2)cc1` the activity change, negative = inhibition was inconclusive: -13.9%.
In the case of `CCOC(=O)C1(Cc2ccc(OC)cc2)CCN(C(=O)c2cc3ccccc3[nH]2)CC1`, the activity change, negative = inhibition is reported as inconclusive: 2.15%.
With `CN(C)c1ccc(/C=N/NC(=O)c2ccc(Cn3cc(Br)cn3)o2)cc1` the Potency was inconclusive: 6.51 µM [falling, partial curve].
With `Cn1c(CSCc2ccc(Cl)cc2)nnc1SCC(=O)Nc1nccs1` the “activity change, negative = inhibition” value was inactive: 19.1%.
In the case of `CCOC(=O)/C=C/[C@H]1CC2(CCO1)SCCCS2`, the activity change, negative = inhibition is reported as inconclusive: 4.16%.
For `O=C(N/N=C/c1cccnc1)C1CC1(c1ccccc1)c1ccccc1` (centres undefined), the Potency was inconclusive: 7.94 µM [falling, partial curve].
With `O=C(NCc1ccc(F)cc1)c1ccc(CS(=O)(=O)c2ccc(Br)cc2)o1` the activity change, negative = inhibition was inconclusive: -16.1%.
In the case of `CC(C)CC(=O)Nc1cccc(-c2csc(-c3ccccc3)n2)c1`, the activity change, negative = inhibition is reported as inconclusive: 19.5%.
With `Cc1ccc(NC(=O)C2CC2c2ccccc2)c([N+](=O)[O-])c1` (centres undefined) the activity change, negative = inhibition was inconclusive: 3.36%.
With `Clc1ccc(-c2csc(N3CCOCC3)n2)cc1` the activity change, negative = inhibition was inconclusive: 4.43%.
In the case of `COc1ccc(C2=NN(C3=NN=C(N)Cc4ncnn43)C(O)(C(F)(F)F)C2)cc1` (centres undefined), the “activity change, negative = inhibition” value is reported as inactive: -14.5%.
In the case of `Cc1c(NC(=O)CSc2nncc3ccccc23)c(=O)n(-c2ccccc2)n1C`, the Potency is reported as inconclusive: 16.4 µM [falling, partial curve].
For `COc1ccc2[nH]c(O)c(NC(C)=O)c2c1`, the activity change, negative = inhibition was inconclusive: 9.78%.
With `O=C(Oc1c(-c2ccccc2)c(=O)n2c3c(cccc13)CC2)c1ccc(Cl)cc1` the “activity change, negative = inhibition” value was inactive: -2.26%.
With `O=[N+]([O-])c1ccc(CSc2nnc(-c3cnccn3)o2)cc1` the “activity change, negative = inhibition” value was inactive: -4.41%.
